Measured values as given in article PMC3842039.
These are yes or no findings as the source states them, for the method shown. A result given as binding can be weak or reduced; the word gives no strength. Sequences can lack the tags named with a protein.

Legend:
[1] = target: T1, AtGIP1 (GCP3-Interacting Protein 1), full length, yeast two-hybrid fusion (Arabidopsis thaliana) (UniProt Q9M0N8); assay: two-hybrid; AH109 cells co-transformed with bait (Gal4 BD) and prey (Gal4 AD) plasmids, growth on -HLW + 3-AT, 2 days at 30°C
T1 sequence: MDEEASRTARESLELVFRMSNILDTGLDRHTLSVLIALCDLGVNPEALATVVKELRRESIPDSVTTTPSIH

[2] = target: T2, AtGIP2, full length, yeast two-hybrid fusion (Arabidopsis thaliana) (UniProt Q9C9T3); assay: as above
T2 sequence: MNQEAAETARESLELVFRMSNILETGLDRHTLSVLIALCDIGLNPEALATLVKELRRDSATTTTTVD

[3] = target: T1, AtGIP1 (GCP3-Interacting Protein 1), full length, yeast two-hybrid fusion (Arabidopsis thaliana); assay: two-hybrid; AH109 cells co-transformed with BD bait and AD prey, spotted directly and after ten-fold serial dilutions, growth on high-stringency (-AHTL) medium, 2 days at 30°C
[4] = target: T2, AtGIP2, full length, yeast two-hybrid fusion (Arabidopsis thaliana); assay: as above
[5] = target: T1, AtGIP1 (GCP3-Interacting Protein 1), full length, yeast two-hybrid fusion (Arabidopsis thaliana); assay: two-hybrid; screen of an A. thaliana cDNA library (Clontech) with BD-AtGIP1 bait (pAS2ΔΔ) in yeast CG1945; selection on medium lacking histidine, tryptophan and leucine with 20 mM 3-AT; clones positive for β-galactosidase activity

| binding [1] | binding [2] | binding [3] | binding [5] | Substance | binding [4] |
| --- | --- | --- | --- | --- | --- |
| binds | binds | binds | binds | AtTSA1 C-terminal domain D1 (273 to 755) (Arabidopsis thaliana) (domain or fragment) | no binding (only under high stringent conditions) |
| binds |  |  | binds | AtTSA1 C-terminal domain D2 (326 to 755) (Arabidopsis thaliana) (domain or fragment) |  |
| binds |  |  | binds | AtTSA1 C-terminal domain D3 (405 to 755) (Arabidopsis thaliana) (domain or fragment) |  |
| binds | binds | binds | binds | AtTSA1 C-terminal domain D4 (633 to 755) (Arabidopsis thaliana) (domain or fragment) | binds |
